From ROBIN, a set of small-molecule microarray screens (doi:10.1002/anie.202211358).

Oligonucleotides screened, 5′ to 3′:
T1: PreQ1 riboswitch RNA pseudoknot, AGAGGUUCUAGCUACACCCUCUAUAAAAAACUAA. From B. subtilis. About 24,000 compounds screened, about 170 hits.
T2: SAM-II riboswitch RNA pseudoknot, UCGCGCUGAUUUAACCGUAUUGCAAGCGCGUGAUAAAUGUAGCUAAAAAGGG. About 21,000 compounds screened, about 200 hits.
T3: TPP riboswitch RNA three-way junction, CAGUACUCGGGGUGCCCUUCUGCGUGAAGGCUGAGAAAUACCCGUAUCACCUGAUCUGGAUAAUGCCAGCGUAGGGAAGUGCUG. About 24,000 compounds screened, about 160 hits.

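Each compound is printed as two spots on a slide made to bind it covalently, so it has no test concentration; the read-out is fluorescence of the bound, labelled oligonucleotide. For the PreQ1, TPP and SAM-II riboswitches the laboratory earlier reported (doi:10.1038/s41467-019-09493-3) 1 µM RNA, 2 h, and a rule that included a mean Z-score above 3 (spot signal-to-noise against the whole library), a score well above that on a control array, and duplicate spots agreeing (coefficient of variation under 100). The data file gives only the calls; its cut-offs may differ, and compounds hitting several targets are kept. The calls come from the array alone, and fixing a compound to the slide can hide its binding.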 Key: yes = hit, no = tested without a hit. This is an unselected part of the compounds tested. A dash means that no call is listed here.

SMILES	T1	T2	T3
CCOC(=O)c1c(N)n(-c2ccc(F)cc2)c2nc3ccccc3nc12	no	no	no
Nc1nnc(SCC(=O)Nc2ccc3c(c2)OCO3)s1	no	no	no
COc1ccc(CNC2=NS(=O)(=O)C(c3cccc(Br)c3)=C2C)cc1	no	-	no
CCOc1cccc(C2c3c(-c4cc(C)ccc4O)n[nH]c3C(=O)N2CCO)c1 (stereo not shown)	no	-	no
CCCNc1cc(C)nc(CCC)n1	no	-	no
CC(C)c1cc(NC2CCCCC2)n2nc(-c3cccnc3)nc2n1	no	-	no
CNc1oc(-c2ccc(S(=O)(=O)N3CCc4ccccc4C3)cc2)nc1C#N	no	-	no
CCN(CC)CCNc1c2c(c(C#N)c3nc4ccccc4n13)CCCC2	no	no	no
CNC(C)c1ccc(OC)c(OC)c1 (stereo not shown)	no	no	no
Nc1nc2c(c(NCCc3nc(-c4ccncc4)n[nH]3)n1)CCNCC2	no	no	no
OCCn1nc(-c2ccncc2)nc1CCn1cnnn1	no	no	no
COc1ccccc1N1CCN(c2nc(-c3nonc3N)no2)CC1	no	no	no
Nc1cccc(C2=Nc3cccc4cccc(c34)N2)c1	no	no	no
CCSCC(C)NCc1cc(-c2ccco2)on1 (stereo not shown)	no	no	no
O=C(CCn1cncn1)N1CCC2(CC1)[C@H](O)C[C@@H]2OCCO	no	no	no
COC(=O)c1ccc(Nc2nc3ccccc3n3c(C)nnc23)cc1	no	-	no
CC(C)c1noc(C2CCN(C(=O)C3CC4(CCNCC4)CN3)CC2)n1 (stereo not shown)	no	no	no
Cc1nc(CN)no1	no	no	no
CCOc1ccc(CN2C[C@@H](N(C)C)[C@H](c3ccc(OC)cc3)C2)cc1CO	no	no	no
CNc1nc(OC)nc(-n2cnc(SCc3ccccc3)n2)n1	no	-	no
COC(=O)c1ccc(Nc2ncnc3ccccc23)cc1	no	no	no
Cc1cc(C)c(-c2c(Nc3ccc(CN4CCC(C)CC4)cc3)c(=O)c2=O)cc1C	no	-	no
CC(=O)c1c(C)nn(C(C)CC(=O)NCc2cc3n(n2)CCNC3)c1C (stereo not shown)	no	no	no
Cc1cc(Cl)ccc1Nc1nc(N2CCCCC2)nc2c1cnn2C	no	-	no
CC1(c2ccccc2)O[C@@H]2C[C@H]3[C@@H]4CCC5=CC(=O)C=C[C@]5(C)[C@@]4(F)[C@@H](O)C[C@]3(C)[C@]2(C(=O)CO)O1 (stereo partly shown)	no	no	no
CCc1cccc(NC2=NS(=O)(=O)C(c3cccc(Cl)c3)=C2C)c1	no	-	no
Cc1nc(N)sc1Cc1ccc(O)cc1	no	no	no
CN1N=C(N)c2cn(C3OC(COP(=O)(O)O)C(O)C3O)c3ncnc1c23 (stereo not shown)	no	no	no
COc1cc(CNCCO)cc(Br)c1OCc1cccs1	no	no	no
CC(C)Cc1nc(CN2CCN(Cc3cccs3)C(CCO)C2)no1 (stereo not shown)	no	no	no
Cc1nnc2c3ccccc3nc(Nc3ccc4c(c3)OCCO4)n12	no	-	no
CC(C)c1cc(NCC2CCCO2)n2c(nc3ccccc32)c1C#N (stereo not shown)	no	-	no
Cc1ccccc1C1C(C#N)=C(N)OC2=C1S(=O)(=O)N(Cc1ccccc1F)c1ccccc12 (stereo not shown)	no	-	no
O=C(NCCO)C(=O)c1c(-c2ccc(Cl)cc2)cc2ccccn12	no	no	no
NCCCNC(=O)C1CCCN(C2CCN(C3Cc4ccccc4C3)CC2)C1 (stereo not shown)	no	no	no
Cc1ccccc1NCc1nnc(-c2ccccc2)o1	no	-	no
O=C(NCCCO)C(=Cc1ccc(F)cc1)NC(=O)c1ccco1	no	no	no
Nc1ccc(C(=O)Oc2ccc([N+](=O)[O-])cc2)cc1	no	no	no
CS(=O)(=O)NC1CCN(C(=O)c2ccccc2NCC(=O)O)CC1	no	no	no
Cc1nc(N2CCCC2)nc(N2C[C@@H](CN3CCCCC3)[C@@H](CO)C2)c1C	no	no	no
O=C(Nc1ccccc1Br)N[C@@H]1CCN(c2ccc(C(F)(F)F)cn2)C1	no	no	no
O=C(CCNc1ccc(Cl)c(C(F)(F)F)c1)c1ccccc1	no	no	no
COc1ccc(CCNc2nc(-c3ccc(O)cc3)cs2)cc1OC	no	no	no
CSc1ccc(C2C(C#N)=C(N)OC(C)=C2C(C)=O)cc1 (stereo not shown)	no	no	no
COc1ccccc1OCC(O)Cn1c(=N)n(C)c2ccccc21 (stereo not shown)	no	no	no
O=C(NC1CCC1)c1ccc(S(=O)(=O)N2CC[C@H]3CC[C@@H](C2)N3)cc1	no	no	no
O=C1Nc2ccccc2C1(c1ccc(O)cc1)c1ccc(O)cc1	no	no	no
Cc1ccc(N2CCC(N3CCCC(O)(CO)C3)CC2)cc1Cl (stereo not shown)	no	no	no
Cn1nccc1-c1ccccc1OCC(O)CN1CCCCC1 (stereo not shown)	no	no	no
CC(=O)N[C@H]1CN(C(=O)c2cn(C3CCNCC3)nn2)C[C@@H]1C1CC1	no	no	no
Nc1nc(NCCc2[nH]nc3c2CCCC3)cc(N2CCOCC2)n1	no	no	no
Nc1cc(-c2ccc(Br)cc2)nn1Cc1ccccc1	no	no	no
NCc1ccc(Cn2ccnc2-c2ccccc2F)cc1	no	no	no
Cc1cc(NC2CC(=O)N(Cc3ccccc3C(F)(F)F)C2)nc(N)n1 (stereo not shown)	no	no	no
CC1=C(n2nnc3ccccc32)C(c2ccccc2)C(C#N)=C(N)O1 (stereo not shown)	no	no	no
CCn1c(C(=O)O)c(CNCCC(C)C)c2ccccc21	no	-	no
COC(=O)c1cc(C#N)c(N2CC[C@@H](N3CCN(C)CC3)[C@H](O)C2)nc1C	no	no	no
CC(C)CC(Nc1cc(N2CCOCC2)nc(N)n1)c1cccnc1 (stereo not shown)	no	no	no
NC(=O)c1cc2c(cc1-c1cc(N)nc3[nH]ccc13)OCO2	no	no	no
O=C(NCCc1cnc2ccccn12)c1ccccc1C1CCNC1 (stereo not shown)	no	no	no
C[C@H](NC(=O)Cc1cc(F)cc(F)c1)C(=O)N[C@H](C(=O)OC(C)(C)C)c1ccccc1	no	no	no
COc1ccc(CCNCc2ccccc2C(F)(F)F)cc1	no	no	no
CNc1nc(C)c(C(=O)N2C[C@@H](CN3CCOCC3)[C@@H](CO)C2)s1	no	no	no
CCc1ccc(-c2c(C#N)c(N)nc3c2CCCCC3)s1	no	no	no
COCc1nc2ccccc2n1CC(O)COc1ccccc1 (stereo not shown)	no	-	no
Cc1cccnc1NCCNC(C)C(=O)NC1CCCC1 (stereo not shown)	no	no	no
CC(C)CC(O)CNC(C)(C)C.Cl (stereo not shown)	no	no	no
OCCOc1cccc(CN2CCn3nc(Cc4ccccc4)cc3C2)c1	no	no	no
COc1c(O)ccc2c1CN1CCc3cc4c(cc3C1C2)OCO4 (stereo not shown)	no	no	no
CC(CCc1ccccc1)NC(=O)c1ccc2c(c1)ncn2CCO (stereo not shown)	no	no	no
Cc1cc(I)ccc1NCC(=O)NN=C1CCCCC1C (stereo not shown)	yes	yes	no
O=C(O)CSc1nc2ccccc2s1	no	no	no
Cc1cc([C@@H](C)Nc2ccccc2C(=O)O)c2nc(N3CCOCC3)cc(=O)n2c1	no	no	no
CSc1nnc(CC2CCN(C(=O)[C@H](N)Cc3ccccc3)CC2)n1C	no	no	no
Cc1nc2sc(C(=O)Nc3ccc(F)cc3)c(N)c2c(C)c1Cl	no	no	no

The first 7 entries again:

| SMILES | T1 | T2 | T3 |
|---|---|---|---|
| `CCOC(=O)c1c(N)n(-c2ccc(F)cc2)c2nc3ccccc3nc12` | no | no | no |
| `Nc1nnc(SCC(=O)Nc2ccc3c(c2)OCO3)s1` | no | no | no |
| `COc1ccc(CNC2=NS(=O)(=O)C(c3cccc(Br)c3)=C2C)cc1` | no | - | no |
| `CCOc1cccc(C2c3c(-c4cc(C)ccc4O)n[nH]c3C(=O)N2CCO)c1` (stereo not shown) | no | - | no |
| `CCCNc1cc(C)nc(CCC)n1` | no | - | no |
| `CC(C)c1cc(NC2CCCCC2)n2nc(-c3cccnc3)nc2n1` | no | - | no |
| `CNc1oc(-c2ccc(S(=O)(=O)N3CCc4ccccc4C3)cc2)nc1C#N` | no | - | no |